Results published in PubChem BioAssay AID504327 (National Center for Advancing Translational Sciences (NCATS), 2011).
Hit rate of the full screen: of about 390,000 compounds, about 820 (0.21%) were called active. Inconclusive means that the source gave no clear call. Such entries were picked first, then a sample of the others. Calls come from the whole dose curve; as a rule, active = well fitted inhibition curve with a large enough effect; inconclusive = small, poorly fitted or top-dose-only effect, or another doubt; inactive = no such curve, though single readings can be large or run the other way. A potency beside an inconclusive call is a rough fit, not a confirmed value.

The chains behind the UniProt entries cited, without tags or fusion partners.
UniProt Q92830, whole entry, looked up: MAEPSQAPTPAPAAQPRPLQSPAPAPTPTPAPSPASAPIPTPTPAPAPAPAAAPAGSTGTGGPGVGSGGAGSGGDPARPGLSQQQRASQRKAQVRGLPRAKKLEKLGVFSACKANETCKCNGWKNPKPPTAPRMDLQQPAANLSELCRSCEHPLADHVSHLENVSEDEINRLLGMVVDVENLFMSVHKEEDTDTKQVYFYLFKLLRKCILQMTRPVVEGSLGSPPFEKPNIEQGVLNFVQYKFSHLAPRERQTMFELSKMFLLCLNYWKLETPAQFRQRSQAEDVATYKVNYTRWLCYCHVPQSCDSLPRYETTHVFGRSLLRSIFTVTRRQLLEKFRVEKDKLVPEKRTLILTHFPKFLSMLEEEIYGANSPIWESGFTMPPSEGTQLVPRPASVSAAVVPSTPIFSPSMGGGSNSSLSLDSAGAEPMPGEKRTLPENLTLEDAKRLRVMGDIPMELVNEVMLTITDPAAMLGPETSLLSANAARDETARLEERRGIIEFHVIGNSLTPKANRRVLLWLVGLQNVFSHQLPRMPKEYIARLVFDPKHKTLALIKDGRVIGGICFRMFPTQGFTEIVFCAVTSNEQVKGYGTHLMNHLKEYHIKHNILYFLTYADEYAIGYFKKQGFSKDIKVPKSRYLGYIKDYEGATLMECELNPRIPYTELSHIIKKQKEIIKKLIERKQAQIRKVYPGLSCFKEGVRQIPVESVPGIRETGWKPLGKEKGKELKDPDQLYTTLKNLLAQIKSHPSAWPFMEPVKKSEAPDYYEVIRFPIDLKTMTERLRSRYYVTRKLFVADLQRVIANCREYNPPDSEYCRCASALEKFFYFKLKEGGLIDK

Target: Histone acetyltransferase KAT2A (Homo sapiens) (UniProt Q92830)
Assay: qHTS Assay for Inhibitors of GCN5L2
Settings: GCN5L2 HAT assay, ThioGlo1 CoA-SH fluorescence; series mostly up to 58.9 µM
Outline: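 qHTS, 1536-well. 20nM enzyme, pH 7.5 HEPES/EDTA/Tween-20 buffer; 15 min compound preinc., RT. Start: 75uM H3(1-25), 70uM AcCoA, 50uM ThioGlo1. Read Ex340/Em540 at t=0 (autofluorescence flag) and t=20 min.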
Potency is the fitted concentration of half-maximal effect.

Q: How did the Potency turn out when `COc1cccc(CNC(=O)CCS(=O)(=O)c2ccc3c(c2)CC(C)N3C(=O)C2CC2)c1` (stereo not drawn) was run?
A: The Potency was “inactive”.

Q: For `Cc1nc2ccccc2nc1OCC(=O)Nc1ccc(F)cc1`, which Potency is on record?
A: Its Potency is inconclusive: 0.562 µM [inhibitor, single point].

Q: Which Potency does the source give for `COc1cc(/C=N/N2C(=O)C3C4c5ccccc5C(c5ccccc54)C3C2=O)ccc1O` (stereo not drawn) here?
A: The Potency was “inactive”.

Q: For `Cc1ccc(C2/C(=C(/O)c3ccc(Br)cc3)C(=O)C(=O)N2Cc2ccco2)o1` (stereo not drawn), which Potency is on record?
A: Its Potency is “inactive”.

Q: How did the Potency turn out when `CN(C)Cc1c(O)ccc2c3c(c(=O)oc12)CCCCC3` was run?
A: The Potency was inconclusive: 25.1 µM [inhibitor, partial curve].

Q: How did the Potency turn out when `COc1ccc(S(=O)(=O)N2CCC(C(=O)NCCC(=O)NCc3cccc(OC)c3)CC2)cc1` was run?
A: Its Potency is inconclusive: 0.112 µM [inhibitor, full curve, poor fit].

Q: With `O=C(Nc1ccccc1O)c1ccc(NC(=O)C2CC2)cc1` as the molecule, how does the Potency read?
A: Its Potency is inconclusive: 0.0891 µM [inhibitor, full curve, poor fit].

Q: For `O=C1OC(c2cccs2)=N/C1=C\c1ccc(-c2cccc(Cl)c2)o1`, which Potency is on record?
A: Its Potency is inconclusive: 25.1 µM [inhibitor, single point].

Q: For `COc1ccc(C2=Nn3c(nnc3-c3ccc(OC)cc3)SC2)cc1`, which Potency is on record?
A: The Potency was inconclusive: 39.8 µM [inhibitor, single point].

Q: `CC(=O)OCc1cc(-c2nc3ccccc3[nH]c2=O)nn1-c1ccc(Cl)cc1` was tested. Which Potency did it give?
A: Its Potency is inconclusive: 8.91 µM [inhibitor, single point].

Q: With `O=c1c2cnn(-c3ccccc3)c2nc(-c2cccs2)n1-c1cccc(Cl)c1` as the molecule, how does the Potency read?
A: Its Potency is inconclusive: 39.8 µM [inhibitor, single point].

Q: How did the Potency turn out when `COc1cc(-c2nc3cccc(C)n3c2NCC2CCCO2)ccc1O` (stereo not drawn) was run?
A: Its Potency is inconclusive: 35.5 µM [inhibitor, single point].

Q: How did the Potency turn out when `CC(=O)Oc1c2c(c3c(c1CC=C(C)C)O[C@@]14C(=CC5CC1C(C)(C)OC4(C/C=C(\C)C(=O)O)C5=O)C3=O)OC(C)(CCC=C(C)C)C=C2` (stereo partly drawn) was run?
A: The Potency was inconclusive: 39.8 µM [inhibitor, single point].

Q: Which Potency does the source give for `COc1ccc(NC(=O)c2cccc(N3C(=O)C4C5C=CC(C6CC56)C4C3=O)c2)cc1` (stereo not drawn) here?
A: Its Potency is inconclusive: 25.1 µM [inhibitor, single point].

Q: `Cc1ccc(NC(=O)NC2CC(=O)N(c3ccc4c(c3)OCCO4)C2)c(C)c1` (stereo not drawn) was tested. Which Potency did it give?
A: The Potency was “inactive”.

Q: How did the Potency turn out when `Cc1onc(-c2ccccc2)c1C(O)c1ccc(F)cc1` (stereo not drawn) was run?
A: The Potency was “inactive”.

Q: With `Nc1cccc(-c2nc3ccc(N)cc3s2)c1` as the molecule, how does the Potency read?
A: Its Potency is inconclusive: 39.8 µM [inhibitor, single point].

Q: Which Potency does the source give for `CCOc1cc(/C=C2/C(=O)N(c3ccccc3)N=C2C)ccc1OC(=O)c1ccco1` here?
A: Its Potency is “inactive”.

Q: For `COc1cc(/C=C/c2ccc3c([N+](=O)[O-])cccc3n2)ccc1OCC(=O)O`, which Potency is on record?
A: Its Potency is “inactive”.

Q: Which Potency does the source give for `Cc1cccc(CC2CC(=O)N(c3nc4ccccc4s3)C2=O)c1` (stereo not drawn) here?
A: Its Potency is “inactive”.

Q: How did the Potency turn out when `Cc1cc(C)n2nc(SCC(=O)NC3CCCCC3)nc2n1` was run?
A: Its Potency is “inactive”.

Q: With `Cc1cc(C)n(-c2ccc(NC(=O)C3CCCCN3C(=O)c3occc3C)cc2)n1` (stereo not drawn) as the molecule, how does the Potency read?
A: The Potency was inconclusive: 2.51 µM [inhibitor, partial curve, poor fit].

Q: For `CN(C)c1ccc(-c2ccc3ncnc(-n4ccnc4)c3c2)cc1`, which Potency is on record?
A: Its Potency is active: 25.1 µM.

Q: How did the Potency turn out when `Oc1c(Br)cc(/C=N/n2c(-c3ccccc3)n[nH]c2=S)cc1Br` was run?
A: The Potency was inconclusive: 3.98 µM [inhibitor, single point].

Q: For `CN1CC(=O)NC1=NC(=O)c1ccc(Cl)c(S(=O)(=O)N2CCCCCC2)c1`, which Potency is on record?
A: The Potency was inconclusive: 0.141 µM [inhibitor, full curve, poor fit].

Q: `Cc1cc(C)c2nc(C(F)(F)F)nc(NCCCN3CCOCC3)c2c1` was tested. Which Potency did it give?
A: Its Potency is “inactive”.

Q: `CCOC(=O)c1n[nH]n(-c2cc(Cl)cc(Cl)c2)c1=O` was tested. Which Potency did it give?
A: Its Potency is “inactive”.

Q: With `CNC(=O)c1ccc(NC(=O)COc2ccc(-c3nn(C)c(=O)c4ccccc34)cc2)cc1` as the molecule, how does the Potency read?
A: Its Potency is “inactive”.

Q: `Cc1cc(=O)n2nc(N3CCC(C(=O)NCc4ccc(Cl)cc4)CC3)sc2n1` was tested. Which Potency did it give?
A: The Potency was inconclusive: 44.7 µM [inhibitor, partial curve, poor fit].

Q: `C=CCN(CC=C)Cc1c(O)ccc2c(=O)c(-c3ccccc3)coc12` was tested. Which Potency did it give?
A: The Potency was inconclusive: 39.8 µM [inhibitor, single point].

Q: For `O=c1cc(-c2ccccc2)nc2c(-c3ccccc3)c(C(F)(F)F)[nH]n12`, which Potency is on record?
A: The Potency was inconclusive: 39.8 µM [inhibitor, single point].

Q: With `CC(/C=C/C=C/c1ccccc1)=N/NC(=O)c1ccc2c(c1)OCCO2` as the molecule, how does the Potency read?
A: Its Potency is inconclusive: 0.1 µM [inhibitor, full curve, poor fit].

Q: `Cc1ccc2nc(NC(=O)C3CCN(S(=O)(=O)c4cc([N+](=O)[O-])ccc4Cl)CC3)sc2c1` was tested. Which Potency did it give?
A: The Potency was inconclusive: 12.6 µM [inhibitor, partial curve].

Q: For `COCc1ccc(C(=O)N2CCCC(C(=O)c3ccc(SC)cc3)C2)s1` (stereo not drawn), which Potency is on record?
A: Its Potency is “inactive”.

Q: How did the Potency turn out when `Cc1ccc(-c2nc3c(c(SCC(=O)Nc4cccc(C(=O)O)c4)n2)Cc2cccc(C)c2O3)cc1` was run?
A: Its Potency is inconclusive: 4.47 µM [inhibitor, full curve].

Q: Which Potency does the source give for `O=C(c1ccc(Br)s1)N1CCN(c2ccccn2)CC1` here?
A: Its Potency is inconclusive: 39.8 µM [inhibitor, single point].

Q: How did the Potency turn out when `O=[N+]([O-])c1ccc(C[n+]2cccc(O)c2)cc1` was run?
A: Its Potency is “inactive”.

Q: For `CC1(C)C(/C=C/C=C/C=C/C=C2\N(CCCCS(=O)(=O)O)c3ccc4ccccc4c3C2(C)C)=[N+](CCCCS(=O)(=O)[O-])c2ccc3ccccc3c21`, which Potency is on record?
A: Its Potency is active: 10 µM.

Q: How did the Potency turn out when `Oc1cccc(Nc2nc(-c3ccccc3Cl)nc3ccccc23)c1` was run?
A: Its Potency is “inactive”.

Q: For `COc1ccc2nc(-c3ccccc3)cc(C(=O)OCC(=O)N3CCCCC3)c2c1`, which Potency is on record?
A: The Potency was inconclusive: 39.8 µM [inhibitor, single point].

Q: Which Potency does the source give for `O=c1oc2c(CN3CCOCC3)c(O)ccc2c2c1CCCC2` here?
A: The Potency was inconclusive: 39.8 µM [inhibitor, single point].

Q: With `CCC(C)Sc1ccc(-c2nc3ccc(C)cn3c2NCc2ccccc2)cc1` (stereo not drawn) as the molecule, how does the Potency read?
A: Its Potency is inconclusive: 28.2 µM [inhibitor, partial curve].

Q: For `O=C1CC(=O)N(Cc2ccco2)C(=S)N1`, which Potency is on record?
A: Its Potency is active: 17.8 µM.

Q: `O=C(CCC1CCCCC1)NCCN1C2=NC[C@H](Cc3ccc(O)cc3)N2C[C@H]1Cc1ccc(O)cc1` was tested. Which Potency did it give?
A: Its Potency is “inactive”.

Q: `CN(C)S(=O)(=O)c1cccc(CSCc2cccc(S(=O)(=O)N(C)C)c2)c1` was tested. Which Potency did it give?
A: Its Potency is inconclusive: 0.501 µM [inhibitor, single point].

Q: How did the Potency turn out when `CCOc1ccc(NC(=O)c2ccc(N)cc2)cc1` was run?
A: The Potency was “inactive”.

Q: With `COc1ccc(CN2CCNC(=O)C2CC(=O)N(C)CCCN2CCOCC2)cc1C` (stereo not drawn) as the molecule, how does the Potency read?
A: Its Potency is inconclusive: 0.447 µM [inhibitor, full curve, poor fit].

Q: With `CS(=O)(=O)n1nc(-c2ccc(Cl)cc2)nc1N` as the molecule, how does the Potency read?
A: The Potency was inconclusive: 25.1 µM [inhibitor, single point].

Q: `Cc1nn(C(C)(C)C)c(OC(=O)c2c(F)cccc2F)c1Sc1ccccc1` was tested. Which Potency did it give?
A: Its Potency is “inactive”.

Q: For `CCn1c(CSCc2ccc(C)cc2)nnc1SCC(=O)N1CCN(c2ccccc2)CC1`, which Potency is on record?
A: The Potency was “inactive”.

Q: Which Potency does the source give for `Cc1ccc(-c2c[n+](=O)c3c(n2[O-])CCC3)cc1` here?
A: The Potency was inconclusive: 4.47 µM [inhibitor, single point].

Q: For `Cc1c(NC(=O)CN2CCN(C(=O)c3ccco3)CC2)c(=O)n(-c2ccccc2)n1C`, which Potency is on record?
A: Its Potency is inconclusive: 25.1 µM [inhibitor, partial curve, poor fit].

Q: Which Potency does the source give for `Cc1cc(CNC(=O)c2cccc([N+](=O)[O-])c2C)c2ccccc2n1` here?
A: Its Potency is “inactive”.

Q: For `Cc1ccc(SC2=C(Sc3ccc(C)cc3)C(=O)c3ccccc3C2=O)cc1`, which Potency is on record?
A: Its Potency is “inactive”.

Q: How did the Potency turn out when `Cc1ccc(CN2C(=O)CCC2C(=O)NC2CC2)cc1` (stereo not drawn) was run?
A: Its Potency is inconclusive: 1.26 µM [inhibitor, full curve, poor fit].

Q: `C=CCN(CC=C)S(=O)(=O)c1ncn[nH]1` was tested. Which Potency did it give?
A: Its Potency is “inactive”.

Q: `Cc1ccc2nc(-c3ccco3)c(Nc3ccc4c(c3)OCCO4)n2c1` was tested. Which Potency did it give?
A: Its Potency is “inactive”.

Q: How did the Potency turn out when `CN(C)c1ccc(C(=S)N2CCOCC2)cc1` was run?
A: The Potency was “inactive”.

Q: With `Clc1ccccc1-c1nnc2sc(C3COc4ccccc4O3)nn12` (stereo not drawn) as the molecule, how does the Potency read?
A: The Potency was inconclusive: 5.62 µM [inhibitor, full curve, poor fit].

Q: For `CCCCC(=O)NC(c1ccc(N(C)C)cc1)c1ccc2cccnc2c1O` (stereo not drawn), which Potency is on record?
A: Its Potency is “inactive”.

Q: Which Potency does the source give for `COc1ccc(CCNc2cc(C)nc3c(-c4ccccc4)cnn23)cc1OC` here?
A: Its Potency is inconclusive: 25.1 µM [inhibitor, partial curve].

Q: Which Potency does the source give for `CC(=O)OCC(=O)[C@@]1(O)CC[C@@H]2[C@H]3CCC4=CC(=O)CC[C@]4(C)[C@]3(F)[C@@H](O)C[C@@]21C` here?
A: The Potency was inconclusive: 17.8 µM [inhibitor, single point].

Q: Which Potency does the source give for `Cc1ccccc1NC(=O)CSc1ccncc1` here?
A: Its Potency is “inactive”.

Q: Which Potency does the source give for `O=C(c1sc(N2CCOCC2)nc1-c1ccccc1)N1CCCCC1` here?
A: Its Potency is “inactive”.

Q: Which Potency does the source give for `CCOC(=O)c1cc2c(s1)-c1ccccc1CC2` here?
A: Its Potency is inconclusive: 1 µM [inhibitor, partial curve, poor fit].

Q: For `CCc1cccc2c3c([nH]c12)[C@@](CC)(CC(=O)O)OCC3`, which Potency is on record?
A: The Potency was active: 12.6 µM.

Q: For `Cc1ccc(-n2c(CNc3cccc(Cl)c3)n[nH]c2=S)cc1`, which Potency is on record?
A: The Potency was “inactive”.

Q: `CCOC(=O)C1=C(N)N(c2ccccc2)C(=O)C1` was tested. Which Potency did it give?
A: The Potency was “inactive”.

Q: With `Nc1ccc2cc3ccc(N)cc3nc2c1` as the molecule, how does the Potency read?
A: Its Potency is inconclusive: 31.6 µM [inhibitor, single point].

Q: With `Cc1ccc(SC(C)C(=O)O/N=C(\N)c2ccncc2)cc1` (stereo not drawn) as the molecule, how does the Potency read?
A: The Potency was inconclusive: 25.1 µM [inhibitor, single point].

Q: Which Potency does the source give for `CC(C)N(C)Cc1nnnn1CC(=O)NCCc1cccc(C(F)(F)F)c1` here?
A: Its Potency is inconclusive: 0.447 µM [inhibitor, partial curve, poor fit].

Q: `COc1ccc(N2CC(NC(=O)C3CC3)CC2=O)cc1OC` (stereo not drawn) was tested. Which Potency did it give?
A: Its Potency is “inactive”.

Q: How did the Potency turn out when `CC(C(=O)Oc1ccc2c(c1)OCO2)N1C(=O)c2ccccc2C1=O` (stereo not drawn) was run?
A: The Potency was inconclusive: 7.08 µM [inhibitor, single point].
